Laboratory results taken from patent US20040234962A1, “Multicoated or multilayer entrapment matrix for protein biosensor” (priority 2003, published 2004).

Assay: Ligand masking: IANBD dye labeling of GGBP mutants with and without glucose
[1] = Table 1, IANBD labeling without glucose
[2] = Table 1, final concentration glucose 107 mM
[3] = Table 1, final concentration glucose 99 mM

| Substance | Dye: Protein Ratio, - glucose [1] | Dye: Protein Ratio, + glucose [2] | Dye: Protein Ratio, + glucose [3] | other results |
| --- | --- | --- | --- | --- |
| A213C/L238C: GGBP double mutant: cysteine at position 213 and cysteine at position 238 | 1.8 | 1.2 |  |  |
| A213C: GGBP mutant, cysteine substituted for alanine at position 213 | 1.3 |  | 0.4 |  |
| E149C/A213C/L238C: GGBP triple mutant: cysteines at positions 149, 213 and 238 |  |  |  | Dye: Protein Ratio, + glucose (Table 2, final concentration glucose 87 mM): 2; Dye: Protein Ratio, - glucose (Table 2, labeling without glucose): 2.8 |
| E149C/A213R/L238S: GGBP triple mutant: cysteine at 149, arginine at 213, serine at 238 | 1 | 1 |  |  |
| E149C: GGBP mutant, cysteine substituted for glutamic acid at position 149 | 0.3 |  |  | Dye: Protein Ratio, + glucose (Table 1, final concentration glucose 16 mM): 0.3 |
| L238C: GGBP mutant, cysteine substituted for leucine at position 238 | 0.5 |  | 0.2 |  |
